Results as given in publication PMC6899042, “Perturbation of the titin/MURF1 signaling complex is associated with hypertrophic cardiomyopathy in a fish model and in human patients” (Disease Models & Mechanisms, 2019).
These are yes or no findings as the source states them, for the method shown. In cells and extracts the contact can be indirect. Some binding calls cover weakened binding; strength is not graded here.

The chains behind the UniProt entries cited, without tags or fusion partners. A line that says so, or that is headed by a name, gives the form on record, which may keep a tag or linker. Residues count along the entry.
UniProt Q969Q1: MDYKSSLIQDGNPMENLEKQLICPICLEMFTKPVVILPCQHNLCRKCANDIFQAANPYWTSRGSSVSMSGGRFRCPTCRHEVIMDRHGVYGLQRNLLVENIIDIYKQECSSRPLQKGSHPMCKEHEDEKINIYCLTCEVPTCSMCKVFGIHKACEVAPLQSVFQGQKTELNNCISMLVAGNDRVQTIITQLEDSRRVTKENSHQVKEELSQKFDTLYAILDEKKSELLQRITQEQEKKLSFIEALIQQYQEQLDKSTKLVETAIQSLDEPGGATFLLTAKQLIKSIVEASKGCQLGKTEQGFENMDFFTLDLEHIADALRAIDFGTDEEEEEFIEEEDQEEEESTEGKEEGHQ
GFP-tagged WT-TTN-A156 (titin Ig domain A156) (Q8WZ42, residues 30662-30756): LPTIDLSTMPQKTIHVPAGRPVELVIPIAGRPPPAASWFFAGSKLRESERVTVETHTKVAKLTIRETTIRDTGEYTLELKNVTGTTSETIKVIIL
GFP-tagged WT-TTN-A160-161 (titin domains A160-161) (Q8WZ42, residues 31061-31253): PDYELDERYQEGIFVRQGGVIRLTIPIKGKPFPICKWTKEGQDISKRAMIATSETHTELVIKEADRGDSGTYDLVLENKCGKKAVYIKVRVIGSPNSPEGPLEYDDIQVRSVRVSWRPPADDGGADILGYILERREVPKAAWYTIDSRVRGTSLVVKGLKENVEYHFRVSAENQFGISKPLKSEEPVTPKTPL
GFP-tagged WT-TTN-A168-170 (titin domains A168-A170) (Q8WZ42, residues 31855-32155): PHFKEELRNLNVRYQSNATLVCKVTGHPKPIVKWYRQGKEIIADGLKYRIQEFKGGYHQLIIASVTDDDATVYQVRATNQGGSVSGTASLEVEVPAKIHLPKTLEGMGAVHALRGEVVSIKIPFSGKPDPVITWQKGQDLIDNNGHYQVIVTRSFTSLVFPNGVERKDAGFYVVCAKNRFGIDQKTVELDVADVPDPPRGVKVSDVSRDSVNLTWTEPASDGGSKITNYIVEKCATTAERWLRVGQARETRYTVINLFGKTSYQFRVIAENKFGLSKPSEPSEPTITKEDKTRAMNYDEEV
GFP-tagged WT-TTN-A168 (titin Ig domain A168) (Q8WZ42, residues 31855-31948): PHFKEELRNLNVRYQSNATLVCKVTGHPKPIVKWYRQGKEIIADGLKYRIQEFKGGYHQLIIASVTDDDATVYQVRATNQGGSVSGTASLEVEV

Biological target: myc-tagged MURF1 (muscle-specific ring finger protein 1), full length (human) (UniProt Q969Q1)
Assay: co-IP; GFP-tagged TTN fragment co-transfected with myc-tagged MURF1 (COS-7 cells named for A168-170); IP with anti-myc antibody (Catch and Release v2.0 Reversible Immunoprecipitation System), Western blot with anti-GFP; densitometry normalised to the input amount of GFP-TTN, WT set to 1.00 AU

binding | Substance
binds | GFP-tagged WT-TTN-A156 (titin Ig domain A156) (from UniProt Q8WZ42-11 29735-29829) (domain or fragment)
binds | GFP-tagged WT-TTN-A160-161 (titin domains A160-161) (from UniProt Q8WZ42-11 30134-30326) (domain or fragment)
binds | GFP-tagged WT-TTN-A168 (titin Ig domain A168) (from UniProt Q8WZ42-11 30928-31021) (domain or fragment)
binds | GFP-tagged WT-TTN-A168-170 (titin domains A168-A170) (from UniProt Q8WZ42-11 30928-31228) (domain or fragment)
